From PMC10771440

Experiments:
[1] = target: T1, σ^E-HA (HA-tagged extracytoplasmic function σ factor σ^E of Streptomyces coelicolor) (Streptomyces coelicolor) (UniProt P38133); assay: affinity purification with mass spectrometry; cells stressed with 4% EtOH for 1 h; lysate of S. coelicolor LK3802 (σ^E-HA) in 1×P buffer, no nuclease treatment, mouse anti-HA antibody with Protein-G Plus agarose, overnight at 4 °C; untagged wt LK3801 as background; label-free quantification, three biological replicates
T1 sequence: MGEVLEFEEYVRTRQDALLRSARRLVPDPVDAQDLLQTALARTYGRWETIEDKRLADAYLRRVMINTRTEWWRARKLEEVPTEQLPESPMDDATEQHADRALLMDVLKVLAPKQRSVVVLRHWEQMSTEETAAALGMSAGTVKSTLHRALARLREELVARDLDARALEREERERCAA

[2] = target: T1, σ^E-HA (HA-tagged extracytoplasmic function σ factor σ^E of Streptomyces coelicolor) (Streptomyces coelicolor); assay: affinity purification with mass spectrometry; non-stressed cells; lysate of S. coelicolor LK3802 (σ^E-HA) in 1×P buffer, no nuclease treatment, mouse anti-HA antibody with Protein-G Plus agarose, overnight at 4 °C; untagged wt LK3801 as background; label-free quantification, three biological replicates
[3] = target: T1, σ^E-HA (HA-tagged extracytoplasmic function σ factor σ^E of Streptomyces coelicolor) (Streptomyces coelicolor); assay: condition: only cells stressed with 4% EtOH for 1 h; affinity purification with mass spectrometry; cells stressed with 4% EtOH for 1 h; lysate of S. coelicolor LK3802 (σ^E-HA) in 1×P buffer, no nuclease treatment, mouse anti-HA antibody with Protein-G Plus agarose, overnight at 4 °C; untagged wt LK3801 as background; label-free quantification, three biological replicates

Molecule: HupA, a DNA binding protein
binding [1]: binds
binding [2]: binds

Molecule: termination factor Rho
binding [2]: binds
binding [3]: no binding

Molecule: nucleoid-binding protein sIHF
binding [1]: binds
binding [2]: no binding (only cells without EtOH stress)

Molecule: transcriptional regulator BldC
binding [2]: binds
binding [3]: no binding

B1: putative nucleic acid binding protein SCO5570 (protein, UniProt Q9ZBQ9 1-217)
chain: MVLNARLDHRDPLVFDTHELGRRPGALQRLTRTVDAPKDFGLQGVIGVPEGAPVELDLRLESVMEGVLVTGTARARAAGECVRCLEPLEQQLEADFQELFSYPDADDRGRPVAEPGDDAEDDEDRFFVEDGLIGLEPVLRDAVVLALPMQPVCQEDCRGLCSQCGVRLSDDPDHHHDAVDIRWAALQGLAGSLGDGEKDEMSGDGADSADAAEKQEK
binding [2]: binds
binding [3]: no binding

Continued, in another order:

binding [1]: binds
Molecule: transcriptional regulator NdgR
binding [2]: no binding (only cells without EtOH stress)

binding [2]: binds
binding [3]: no binding
Molecule: transcriptional regulator CarD

binding [1]: binds
Molecule: nucleoid-binding protein Lsr2
binding [2]: no binding (only cells without EtOH stress)

binding [2]: binds
binding [3]: no binding
Molecule: putative anti-σ factor ApgA

binding [2]: binds
binding [3]: no binding
B2: putative nucleic acid binding protein SCO0174 (protein, UniProt Q9RIZ1 1-323)
chain: MGAVSPREAGVRNSFDGEGAVMYAHLGDRLIVESPSTGVTRRDGEIVGLHHDDGTPPYDVRWSDTGDVTLVFPGPDARVNHGAEEAEASQGAPSGVSRGEGVDSSLIAAGAGDLGRRLAAARRRRGLSLEQVARRARMAPQYLAYLETHTADPGFGSLVRLADALGTTYAELQGGGADRPPGQGAALRNPTLRDLDEKECRALLSAHGVGRLALNTPDGPAVFPLNYVVSQGTIAFRTDPDAATAAAVDSEVAFEVDHIDDPMSQGWSVLAVGRCRAVTDPEEVRRLAEKAHTEPWAGGRRTMWLAVETERLTGRRITSVSGS

No constants are given. Whether binding was seen depends on the method and setting. In cells and extracts the contact can be indirect. A yes stands for co-enrichment or nearness to the bait. Other partners may have been found. For some assays here: No binding means not detected with the bait. Sequences can lack the tags named with a protein. Each block holds one molecule with its values, some of them ahead of it.
